In the supplement of paper PMC8728848:
The list shows a part of the results.

Experiments:
Test in all cases: glycan array binding signal (z-score within array); higher = stronger binding
Conditions in all cases: glycan notation: IUPAC condensed, linker removed
[1] = molecular target: Neu5Ac(a2-3)Gal6S(b1-4)[Fuc(a1-3)]GlcNAc
Summary of the method: (§1)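 Arrays were curated from the Consortium for Functional Glycomics database, 3228 in total, and kept only where the protein sequence was available. Binding is expressed as a within-array Z-score. This score was averaged across arrays of the same protein sequence at different concentrations or buffers and across linkers, and negative values can be read as non-binding.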

[2] = molecular target: Neu5Ac(a2-3)GalNAc
Summary of the method: as §1

[3] = molecular target: Neu5Ac(a2-3)GalNAc(b1-4)GlcNAc
Summary of the method: as §1

[4] = molecular target: Neu5Ac(a2-3)[GalNAc(b1-4)]Gal(b1-4)Glc
Summary of the method: as §1

[5] = molecular target: Neu5Ac(a2-3)[GalNAc(b1-4)]Gal(b1-4)GlcNAc
Summary of the method: as §1

[6] = molecular target: Neu5Ac(a2-3)[GalNAc(b1-4)]Gal(b1-4)GlcNAc(b1-3)GalNAc
Summary of the method: as §1

[7] = molecular target: Neu5Ac(a2-3)[Neu5Ac(a2-6)]GalNAc
Summary of the method: as §1

[8] = molecular target: Neu5Ac(a2-6)Gal
Summary of the method: as §1

[9] = molecular target: Neu5Ac(a2-6)Gal(b1-4)Glc
Summary of the method: as §1

[10] = molecular target: Neu5Ac(a2-6)Gal(b1-4)GlcNAc
Summary of the method: as §1

[11] = molecular target: Neu5Ac(a2-6)Gal(b1-4)GlcNAc(b1-2)Man(a1-3)Man(b1-4)GlcNAc(b1-4)GlcNAc
Summary of the method: as §1

[12] = molecular target: Neu5Ac(a2-6)Gal(b1-4)GlcNAc(b1-2)Man(a1-3)[Gal(b1-4)GlcNAc(b1-2)Man(a1-6)]Man(b1-4)GlcNAc(b1-4)GlcNAc
Summary of the method: as §1

[13] = molecular target: Neu5Ac(a2-6)Gal(b1-4)GlcNAc(b1-2)Man(a1-3)[GlcNAc(b1-2)Man(a1-6)]Man(b1-4)GlcNAc(b1-4)GlcNAc
Summary of the method: as §1

[14] = molecular target: Neu5Ac(a2-6)Gal(b1-4)GlcNAc(b1-2)Man(a1-3)[GlcNAc(b1-2)Man(b1-4)GlcNAc(b1-2)Man(a1-6)]Man(b1-4)GlcNAc(b1-4)GlcNAc
Summary of the method: as §1

[15] = molecular target: Neu5Ac(a2-6)Gal(b1-4)GlcNAc(b1-2)Man(a1-3)[Man(a1-6)]Man(b1-4)GlcNAc(b1-4)GlcNAc
Summary of the method: as §1

[16] = molecular target: Neu5Ac(a2-6)Gal(b1-4)GlcNAc(b1-2)Man(a1-3)[Neu5Ac(a2-6)Gal(b1-4)GlcNAc(b1-2)Man(a1-6)]Man(b1-4)GlcNAc(b1-4)GlcNAc
Summary of the method: as §1

[17] = molecular target: Neu5Ac(a2-6)Gal(b1-4)GlcNAc(b1-2)Man(a1-6)Man(b1-4)GlcNAc(b1-4)GlcNAc
Summary of the method: as §1

[18] = molecular target: Neu5Ac(a2-6)Gal(b1-4)GlcNAc(b1-2)Man(a1-6)[Gal(b1-4)GlcNAc(b1-2)Man(a1-3)]Man(b1-4)GlcNAc(b1-4)GlcNAc
Summary of the method: as §1

[19] = molecular target: Neu5Ac(a2-6)Gal(b1-4)GlcNAc(b1-2)Man(a1-6)[GlcNAc(b1-2)Man(a1-3)]Man(b1-4)GlcNAc(b1-4)GlcNAc
Summary of the method: as §1

[20] = molecular target: Neu5Ac(a2-6)Gal(b1-4)GlcNAc(b1-2)Man(a1-6)[Man(a1-3)]Man(b1-4)GlcNAc(b1-4)GlcNAc
Summary of the method: as §1

[21] = molecular target: Neu5Ac(a2-6)Gal(b1-4)GlcNAc(b1-3)Gal(b1-3)GlcNAc
Summary of the method: as §1

[22] = molecular target: Neu5Ac(a2-6)Gal(b1-4)GlcNAc(b1-3)Gal(b1-4)GlcNAc
Summary of the method: as §1

[23] = molecular target: Neu5Ac(a2-6)Gal(b1-4)GlcNAc(b1-3)Gal(b1-4)GlcNAc(b1-3)Gal(b1-4)GlcNAc
Summary of the method: as §1

[24] = molecular target: Neu5Ac(a2-6)Gal(b1-4)GlcNAc(b1-3)Gal(b1-4)[Fuc(a1-3)]GlcNAc(b1-3)Gal(b1-4)[Fuc(a1-3)]GlcNAc
Summary of the method: as §1

[25] = molecular target: Neu5Ac(a2-6)Gal(b1-4)GlcNAc(b1-3)GalNAc
Summary of the method: as §1

[26] = molecular target: Neu5Ac(a2-6)Gal(b1-4)GlcNAc6S
Summary of the method: as §1

[27] = molecular target: Neu5Ac(a2-6)GalNAc
Summary of the method: as §1

[28] = molecular target: Neu5Ac(a2-6)GalNAc(b1-4)GlcNAc
Summary of the method: as §1

[29] = molecular target: Neu5Ac(a2-6)GlcNAc(b1-4)GlcNAc
Summary of the method: as §1

[30] = molecular target: Neu5Ac(a2-6)GlcNAc(b1-4)GlcNAc(b1-4)GlcNAc
Summary of the method: as §1

[31] = molecular target: Neu5Ac(a2-8)Neu5Ac
Summary of the method: as §1

[32] = molecular target: Neu5Ac(a2-8)Neu5Ac(a2-3)Gal(b1-4)Glc
Summary of the method: as §1

[33] = molecular target: Neu5Ac(a2-8)Neu5Ac(a2-3)[GalNAc(b1-4)]Gal(b1-4)Glc
Summary of the method: as §1

[34] = molecular target: Neu5Ac(a2-8)Neu5Ac(a2-8)Neu5Ac
Summary of the method: as §1

[35] = molecular target: Neu5Ac(a2-8)Neu5Ac(a2-8)Neu5Ac(a2-3)Gal(b1-4)Glc
Summary of the method: as §1

[36] = molecular target: Neu5Ac(a2-8)Neu5Ac(a2-8)Neu5Ac(a2-3)[GalNAc(b1-4)]Gal(b1-4)Glc
Summary of the method: as §1

[37] = molecular target: Neu5Ac(a2-8)Neu5Ac(a2-8)Neu5Ac(a2-8)Neu5Ac(a2-3)[GalNAc(b1-4)]Gal(b1-4)Glc
Summary of the method: as §1

[38] = molecular target: Neu5Ac(b2-6)Gal(b1-4)GlcNAc
Summary of the method: as §1

[39] = molecular target: Neu5Ac(b2-6)GalNAc
Summary of the method: as §1

[40] = molecular target: Neu5Ac9Ac(a2-3)Gal(b1-3)GlcNAc
Summary of the method: as §1

[41] = molecular target: Neu5Ac9Ac(a2-3)Gal(b1-4)GlcNAc
Summary of the method: as §1

[42] = molecular target: Neu5Ac9Ac(a2-6)Gal(b1-4)GlcNAc
Summary of the method: as §1

[43] = molecular target: Neu5Gc(a2-3)Gal(b1-3)GlcNAc
Summary of the method: as §1

[44] = molecular target: Neu5Gc(a2-3)Gal(b1-3)[Fuc(a1-4)]GlcNAc
Summary of the method: as §1

[45] = molecular target: Neu5Gc(a2-3)Gal(b1-4)Glc
Summary of the method: as §1

[46] = molecular target: Neu5Gc(a2-3)Gal(b1-4)GlcNAc
Summary of the method: as §1

[47] = molecular target: Neu5Gc(a2-3)Gal(b1-4)[Fuc(a1-3)]GlcNAc
Summary of the method: as §1

[48] = molecular target: Neu5Gc(a2-6)Gal(b1-4)GlcNAc
Summary of the method: as §1

[49] = molecular target: Neu5Gc(a2-6)GalNAc
Summary of the method: as §1

[50] = molecular target: Neu5Gc(b2-6)Gal(b1-4)GlcNAc
Summary of the method: as §1

B1: SAG1 (Toxoplasma gondii), P13664 (protein)
chain: MSVSLHHFIISSGFLTSMFPKAVRRAVTAGVFAAPTLMSFLRCGVMASDPPLVANQVVTCPDKKSTAAVILTPTENHFTLKCPKTALTEPPTLAYSPNRQICPAGTTSSCTSKAVTLSSLIPEAEDSWWTGDSASLDTAGIKLTVPIEKFPVTTQTFVVGCIKGDDAQSCMVTVTVQARASSVVNNVARCSYGADSTLGPVKLSAEGPTTMTLVCGKDGVKVPQDNNQYCSGTTLTGCNEKSFKDILPKLTENPWQGNASSDKGATLTIKKEAFPAESKSVIIGCTGGSPEKHHCTVKLEFAGAAGSAKSAAGTASHVSIFAMVIGLIGSIAACVA
glycan array binding signal (z-score) [1]: 0.117
glycan array binding signal (z-score) [2]: -0.306
glycan array binding signal (z-score) [3]: -0.667
glycan array binding signal (z-score) [4]: -0.532
glycan array binding signal (z-score) [5]: 0.393
glycan array binding signal (z-score) [6]: 0.302
glycan array binding signal (z-score) [7]: -0.35
glycan array binding signal (z-score) [8]: -0.051
glycan array binding signal (z-score) [9]: -0.146
glycan array binding signal (z-score) [10]: -0.366
glycan array binding signal (z-score) [11]: 0.755
glycan array binding signal (z-score) [12]: 0.036
glycan array binding signal (z-score) [13]: 0.059
glycan array binding signal (z-score) [14]: 0.028
glycan array binding signal (z-score) [15]: 0.662
glycan array binding signal (z-score) [16]: 0.147
glycan array binding signal (z-score) [17]: 0.715
glycan array binding signal (z-score) [18]: 0.025
glycan array binding signal (z-score) [19]: -0.2
glycan array binding signal (z-score) [20]: 0.386
glycan array binding signal (z-score) [21]: -0.009
glycan array binding signal (z-score) [22]: -0.56
glycan array binding signal (z-score) [23]: -0.039
glycan array binding signal (z-score) [24]: 1.11
glycan array binding signal (z-score) [25]: -0.209
glycan array binding signal (z-score) [26]: 0.07
glycan array binding signal (z-score) [27]: -0.03
glycan array binding signal (z-score) [28]: -0.481
glycan array binding signal (z-score) [29]: 0.574
glycan array binding signal (z-score) [30]: -0.384
glycan array binding signal (z-score) [31]: 0.023
glycan array binding signal (z-score) [32]: -0.543
glycan array binding signal (z-score) [33]: 0.972
glycan array binding signal (z-score) [34]: 0.35
glycan array binding signal (z-score) [35]: -1.02
glycan array binding signal (z-score) [36]: 1.02
glycan array binding signal (z-score) [37]: -0.241
glycan array binding signal (z-score) [38]: -0.487
glycan array binding signal (z-score) [39]: -0.35
glycan array binding signal (z-score) [40]: -1.11
glycan array binding signal (z-score) [41]: -0.027
glycan array binding signal (z-score) [42]: -1.11
glycan array binding signal (z-score) [43]: 0.479
glycan array binding signal (z-score) [44]: 0.031
glycan array binding signal (z-score) [45]: 0.776
glycan array binding signal (z-score) [46]: -0.231
glycan array binding signal (z-score) [47]: 0.199
glycan array binding signal (z-score) [48]: -0.403
glycan array binding signal (z-score) [49]: 0.136
glycan array binding signal (z-score) [50]: 0.582
